# The supplement of paper PMC8728848
# This is one part of the list.
# B1: PX14343E-bfa-545-24-545 (Bacteroides fragilis) (protein)
# chain: LDRYPQEELSDGSFWKTPDDANKVVSDLYGYLSTWDQDNDINSDNATMGIKWAAGNVSKGIYDPADQGWSGDYANVRQCNLILSKIDEIPDYPEADKTKALGQVYFFRAYIYFNLIRSFGDVPYIDKPLDLKDMEGITRMPRAEVYEKIMADFDKAIAALPTEWGASDYGRVTKGAAMAMKARAALYYGNWDTAATEAKNVMDLGLYELYDKDNTGKYAELFWEKADGCDEFILVTQFNYPDKTHYLMGWECFPTKGWGGMNPTQSLVDAFEDSEGAPISKSKIYDPTDPFKNRDPRLEVDILHDGEEMYGVTIKVAPLASSGSTGINQHNDATETGYYGQKWLDPSLDPLSDGWNMGKDWVHIRYAEVLLTYAEAKNELQGLDPEAFDAVNQVRRRVGMPELQNTDPSKPTYCATQDDLRQRIRNEWRVEFCLEGGKRMWDIRRWGIAKDVLNAPFEGLKYKIVDNPNDPDKKVDGGKMCILYQGDPIILSGSRYSDNNYLFPVPQSEIDLNPALTQNPGY
# Assays:
# Test in all cases: glycan array binding signal (z-score within array); higher = stronger binding
# Details in all cases: glycan notation: IUPAC condensed, linker removed
# [1] = target: Gal(b1-4)GlcNAc(b1-6)GalNAc
# Summary of the method: (§1)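 Glycan array binding is given as a within-array Z-score, which can be read as non-binding when negative. The arrays, 3228 of them, came from the Consortium for Functional Glycomics database and were retained only where the protein sequence was available. Z-scores were averaged across arrays of the same protein sequence at different concentrations or buffers and across linkers.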
# [2] = target: Gal(b1-4)GlcNAc(b1-6)[Gal(b1-3)]GalNAc
# Summary of the method: as §1
# [3] = target: Gal(b1-4)GlcNAc(b1-6)[Gal(b1-4)GlcNAc(b1-3)]GalNAc
# Summary of the method: as §1
# Gal(b1-4)GlcNAc6P = target: Gal(b1-4)GlcNAc6P
# Summary of the method: as §1
# Gal(b1-6)Gal = target: Gal(b1-6)Gal
# Summary of the method: as §1
# Gal3S(b1-3)GalNAc = target: Gal3S(b1-3)GalNAc
# Summary of the method: as §1
# Gal3S(b1-3)GlcNAc = target: Gal3S(b1-3)GlcNAc
# Summary of the method: as §1
# [4] = target: Gal3S(b1-3)[Fuc(a1-4)]GlcNAc
# Summary of the method: as §1
# Gal3S(b1-4)Glc = target: Gal3S(b1-4)Glc
# Summary of the method: as §1
# Gal3S(b1-4)Glc6S = target: Gal3S(b1-4)Glc6S
# Summary of the method: as §1
# Gal3S(b1-4)GlcNAc = target: Gal3S(b1-4)GlcNAc
# Summary of the method: as §1
# [5] = target: Gal3S(b1-4)[Fuc(a1-3)]Glc6S
# Summary of the method: as §1
# [6] = target: Gal3S(b1-4)[Fuc(a1-3)]GlcNAc
# Summary of the method: as §1
# [7] = target: Gal3S(b1-4)[Fuc(a1-3)]GlcNAc6S
# Summary of the method: as §1
# Gal3S4S(b1-4)GlcNAc = target: Gal3S4S(b1-4)GlcNAc
# Summary of the method: as §1
# Gal3S6S(b1-4)GlcNAc = target: Gal3S6S(b1-4)GlcNAc
# Summary of the method: as §1
# Gal3S6S(b1-4)GlcNAc6S = target: Gal3S6S(b1-4)GlcNAc6S
# Summary of the method: as §1
# Gal4S(b1-4)GlcNAc = target: Gal4S(b1-4)GlcNAc
# Summary of the method: as §1
# Gal4S6S(b1-4)GlcNAc = target: Gal4S6S(b1-4)GlcNAc
# Summary of the method: as §1
# Gal6P(b1-4)GlcNAc = target: Gal6P(b1-4)GlcNAc
# Summary of the method: as §1
# Gal6S(b1-3)GlcNAc = target: Gal6S(b1-3)GlcNAc
# Summary of the method: as §1
# Gal6S(b1-3)GlcNAc6S = target: Gal6S(b1-3)GlcNAc6S
# Summary of the method: as §1
# Gal6S(b1-4)Glc = target: Gal6S(b1-4)Glc
# Summary of the method: as §1
# Gal6S(b1-4)Glc6S = target: Gal6S(b1-4)Glc6S
# Summary of the method: as §1
# Gal6S(b1-4)GlcNAc = target: Gal6S(b1-4)GlcNAc
# Summary of the method: as §1
# Gal6S(b1-4)GlcNAc6S = target: Gal6S(b1-4)GlcNAc6S
# Summary of the method: as §1
# GalNAc(a1-3)Gal = target: GalNAc(a1-3)Gal
# Summary of the method: as §1
# GalNAc(a1-3)GalNAc = target: GalNAc(a1-3)GalNAc
# Summary of the method: as §1
# [8] = target: GalNAc(a1-3)GalNAc(b1-3)Gal(a1-4)Gal(b1-4)Glc
# Summary of the method: as §1
# [9] = target: GalNAc(a1-3)GalNAc(b1-3)Gal(a1-4)Gal(b1-4)GlcNAc
# Summary of the method: as §1
# GalNAc(b1-3)Gal = target: GalNAc(b1-3)Gal
# Summary of the method: as §1
# [10] = target: GalNAc(b1-3)Gal(a1-4)Gal(b1-4)GlcNAc
# Summary of the method: as §1
# [11] = target: GalNAc(b1-3)Gal(a1-4)Gal(b1-4)GlcNAc(b1-3)Gal(b1-4)Glc
# Summary of the method: as §1
# [12] = target: GalNAc(b1-3)Gal(a1-6)Gal(b1-4)Glc
# Summary of the method: as §1
# GalNAc(b1-3)GalNAc = target: GalNAc(b1-3)GalNAc
# Summary of the method: as §1
# GalNAc(b1-3)GlcNAc = target: GalNAc(b1-3)GlcNAc
# Summary of the method: as §1
# GalNAc(b1-4)Gal(b1-4)Glc = target: GalNAc(b1-4)Gal(b1-4)Glc
# Summary of the method: as §1
# GalNAc(b1-4)GlcNAc = target: GalNAc(b1-4)GlcNAc
# Summary of the method: as §1
binder,measurement,setting,value
B1,glycan array binding signal (z-score),[1],0.811
same,glycan array binding signal (z-score),[2],-0.207
same,glycan array binding signal (z-score),[3],-0.034
same,glycan array binding signal (z-score),Gal(b1-4)GlcNAc6P,-0.642
same,glycan array binding signal (z-score),Gal(b1-6)Gal,-0.212
same,glycan array binding signal (z-score),Gal3S(b1-3)GalNAc,-0.221
same,glycan array binding signal (z-score),Gal3S(b1-3)GlcNAc,0.401
same,glycan array binding signal (z-score),[4],0.094
same,glycan array binding signal (z-score),Gal3S(b1-4)Glc,1.41
same,glycan array binding signal (z-score),Gal3S(b1-4)Glc6S,0.818
same,glycan array binding signal (z-score),Gal3S(b1-4)GlcNAc,-0.61
same,glycan array binding signal (z-score),[5],-0.378
same,glycan array binding signal (z-score),[6],-0.064
same,glycan array binding signal (z-score),[7],0.523
same,glycan array binding signal (z-score),Gal3S4S(b1-4)GlcNAc,0.63
same,glycan array binding signal (z-score),Gal3S6S(b1-4)GlcNAc,1.24
same,glycan array binding signal (z-score),Gal3S6S(b1-4)GlcNAc6S,-0.92
same,glycan array binding signal (z-score),Gal4S(b1-4)GlcNAc,0.127
same,glycan array binding signal (z-score),Gal4S6S(b1-4)GlcNAc,0.122
same,glycan array binding signal (z-score),Gal6P(b1-4)GlcNAc,1.49
same,glycan array binding signal (z-score),Gal6S(b1-3)GlcNAc,0.427
same,glycan array binding signal (z-score),Gal6S(b1-3)GlcNAc6S,1.13
same,glycan array binding signal (z-score),Gal6S(b1-4)Glc,-0.737
same,glycan array binding signal (z-score),Gal6S(b1-4)Glc6S,1.69
same,glycan array binding signal (z-score),Gal6S(b1-4)GlcNAc,-1.1
same,glycan array binding signal (z-score),Gal6S(b1-4)GlcNAc6S,-0.429
same,glycan array binding signal (z-score),GalNAc(a1-3)Gal,-0.081
same,glycan array binding signal (z-score),GalNAc(a1-3)GalNAc,-0.557
same,glycan array binding signal (z-score),[8],-0.418
same,glycan array binding signal (z-score),[9],0.216
same,glycan array binding signal (z-score),GalNAc(b1-3)Gal,0.841
same,glycan array binding signal (z-score),[10],-0.568
same,glycan array binding signal (z-score),[11],0.963
same,glycan array binding signal (z-score),[12],-0.333
same,glycan array binding signal (z-score),GalNAc(b1-3)GalNAc,-0.529
same,glycan array binding signal (z-score),GalNAc(b1-3)GlcNAc,0.169
same,glycan array binding signal (z-score),GalNAc(b1-4)Gal(b1-4)Glc,0.768
same,glycan array binding signal (z-score),GalNAc(b1-4)GlcNAc,-0.798

# Shown bar-delimited: entries from further up.
binder | measurement | setting | value
B1 | glycan array binding signal (z-score) | Gal3S(b1-4)GlcNAc | -0.61
same | glycan array binding signal (z-score) | [5] | -0.378
same | glycan array binding signal (z-score) | [6] | -0.064
same | glycan array binding signal (z-score) | [7] | 0.523
same | glycan array binding signal (z-score) | Gal3S4S(b1-4)GlcNAc | 0.63
same | glycan array binding signal (z-score) | Gal3S6S(b1-4)GlcNAc | 1.24
same | glycan array binding signal (z-score) | Gal3S6S(b1-4)GlcNAc6S | -0.92
